Reference: PMC6704147
These are yes or no findings as the source states them, for the method shown. Binding seen in cells or lysates may run through a third protein. Some results given as binding are weak or reduced against the parent protein; the word gives no strength.

Sequences of proteins named here, by UniProt entry; tags and fusion partners are left off.
UniProt O35613: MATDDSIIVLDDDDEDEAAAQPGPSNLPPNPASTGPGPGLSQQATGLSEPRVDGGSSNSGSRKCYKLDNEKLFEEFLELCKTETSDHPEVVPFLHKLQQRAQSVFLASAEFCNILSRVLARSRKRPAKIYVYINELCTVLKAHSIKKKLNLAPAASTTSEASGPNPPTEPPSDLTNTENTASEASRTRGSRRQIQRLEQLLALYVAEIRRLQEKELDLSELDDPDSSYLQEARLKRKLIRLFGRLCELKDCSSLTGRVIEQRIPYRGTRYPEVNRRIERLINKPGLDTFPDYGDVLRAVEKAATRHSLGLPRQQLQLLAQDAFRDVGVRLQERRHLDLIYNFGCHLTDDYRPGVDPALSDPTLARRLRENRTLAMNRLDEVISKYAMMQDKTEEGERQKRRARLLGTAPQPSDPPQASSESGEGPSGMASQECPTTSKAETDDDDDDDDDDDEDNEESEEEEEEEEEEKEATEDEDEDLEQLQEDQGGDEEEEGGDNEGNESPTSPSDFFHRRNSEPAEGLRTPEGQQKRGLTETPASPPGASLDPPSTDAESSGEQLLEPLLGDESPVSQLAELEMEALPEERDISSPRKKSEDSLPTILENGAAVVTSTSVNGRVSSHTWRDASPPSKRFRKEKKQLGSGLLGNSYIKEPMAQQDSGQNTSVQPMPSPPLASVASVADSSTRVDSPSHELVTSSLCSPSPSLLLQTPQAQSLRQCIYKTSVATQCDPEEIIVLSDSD

Biological target: endogenous p62 (mouse striatum) (mouse (endogenous in striatum)) (UniProt Q64337)
Assay: co-IP; endogenous proteins, mouse (8-week) striatal lysates; IP with anti-p62 antibody, Flag antibody as control; probed with anti-DAXX

binding: binds
Substance: endogenous DAXX (mouse striatum) (from UniProt O35613 1-739)
